Experimental data: patent US6548307B2, “Determination of logP coefficients via a RP-HPLC column” (Pfizer Inc., priority 2000, dated 2003)

Details: pH 7.4
Experimental: The mobile phase consisted, in all cases, of 20 mM MOPS buffer at pH 7.4, and methanol in varying proportions from 70 to 15% v/v. […] The capacity factors data (k′=(tR−t0)/t0) obtained at various amounts of methanol were then extrapolated to 0% methanol and reported as log k′w, using a linear procedure. […] Injections of pure methanol were used to determine t0, i.e. the dead time, while tR has the usual meaning of the retention time for the analyte.
All the chromatographic runs were performed on a HP-1100 HPLC ChemStation at the ambient temperature. The columns used were Supelcosil LC-ABZ, 5μm, 4.6×50 mm. […] Columns having different silica bond lots were tested to ensure reproducibility. Samples were dissolved in 1:1 methanol/water at a concentration of 10-30 μg/mL. The flow rate was 0.5, 1 or 2 mL/min, depending on the lipophilicity range. Three lipophilicity ranges were established using, in all cases, three points for the extrapolation to k′w, as described in the table below.
The samples were placed in the appropriate range by estimating their lipophilicity via computed values, or by prior experience with a given class. In each case the entire group of samples was run before the column is equilibrated to the next condition, in an automated fashion, and the initial estimation need not be very accurate. […]

With CN1C(=O)CN=C(c2ccccc2)c2cc(Cl)ccc21 [Diazepam] the “log k′2 (capacity factor extrapolated to 0% methanol)” value was 2.63.
